Measurements reported in PubChem BioAssay AID493246 (Drosophila RNAi Screening Center, 2011).
The deposit covers about 21,000 reagents; below is a random part of those that have a named target and a result. Over the whole deposit, 429 (2%) were called active. 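Values are raw and not normalised between plates; calls rest on per-plate z-scores that were not deposited.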 Unmarked entries are inactive. Reagents against one gene are numbered here. Not given: the amount of reagent, the time to read-out.

Screen: 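Genome-wide search for dsRNAs that reduce cell number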 (primary screen)
Cells: Drosophila Kc and S2R+ cells
Reagents: long dsRNA against Drosophila genes
Detection: 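Cell number per well after knock-down, printed as raw plate values; calls were based on per-plate z-scores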
Direction: Kc cell number and S2R+ cell number: higher = more cells remaining
Rule for the call: 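Active when the per-plate z-score of cell number is 3 or more in the direction of fewer cells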

With knock-down of CG34007, the screen gave Kc cell number, rep 1 = 5.41e5; S2R+ cell number, rep 1 = 8.36e5.
CG13806 scored Kc cell number, rep 1 = 1.36e6; Kc cell number, rep 2 = 1.26e6; S2R+ cell number, rep 1 = 9.56e5; S2R+ cell number, rep 2 = 1.23e6.
For plu, the values are Kc cell number, rep 1 = 1.64e6; Kc cell number, rep 2 = 1.66e6; S2R+ cell number, rep 1 = 1.16e6; S2R+ cell number, rep 2 = 1.29e6.
Knock-down of ana3 came out at: Kc cell number, rep 1 = 1.47e6; Kc cell number, rep 2 = 1.48e6; S2R+ cell number, rep 1 = 1.24e6; S2R+ cell number, rep 2 = 1.31e6.
Cpr56F scored Kc cell number, rep 1 = 1.57e6; Kc cell number, rep 2 = 1.56e6; S2R+ cell number, rep 1 = 1.23e6; S2R+ cell number, rep 2 = 1.36e6.
For CG9662, the values are Kc cell number, rep 1 = 1.72e6; Kc cell number, rep 2 = 1.76e6; S2R+ cell number, rep 1 = 1.25e6; S2R+ cell number, rep 2 = 1.39e6.

Records listed so far whose target name starts with C or c:
CG34007 | Kc cell number, rep 1 = 5.41e5; S2R+ cell number, rep 1 = 8.36e5
CG13806 | Kc cell number, rep 1 = 1.36e6; Kc cell number, rep 2 = 1.26e6; S2R+ cell number, rep 1 = 9.56e5; S2R+ cell number, rep 2 = 1.23e6
Cpr56F | Kc cell number, rep 1 = 1.57e6; Kc cell number, rep 2 = 1.56e6; S2R+ cell number, rep 1 = 1.23e6; S2R+ cell number, rep 2 = 1.36e6
CG9662 | Kc cell number, rep 1 = 1.72e6; Kc cell number, rep 2 = 1.76e6; S2R+ cell number, rep 1 = 1.25e6; S2R+ cell number, rep 2 = 1.39e6

The list goes on.
Against CG31473 the deposit lists Kc cell number, rep 1 = 1.33e6; Kc cell number, rep 2 = 1.39e6; S2R+ cell number, rep 1 = 1.32e6; S2R+ cell number, rep 2 = 1.37e6.
Depletion of spri #1 gave: Kc cell number, rep 1 = 1.42e6; Kc cell number, rep 2 = 1.39e6; S2R+ cell number, rep 1 = 8.81e5; S2R+ cell number, rep 2 = 9.92e5.
Against spri #2, the values are Kc cell number, rep 1 = 1.48e6; Kc cell number, rep 2 = 1.52e6; S2R+ cell number, rep 1 = 1.02e6; S2R+ cell number, rep 2 = 1.17e6.
Depletion of spri #3 gave: Kc cell number, rep 1 = 1.59e6; Kc cell number, rep 2 = 1.71e6; S2R+ cell number, rep 1 = 1.05e6; S2R+ cell number, rep 2 = 1.15e6.
Knock-down of spri #4 resulted in: Kc cell number, rep 1 = 1.84e6; Kc cell number, rep 2 = 1.74e6; S2R+ cell number, rep 1 = 1.15e6; S2R+ cell number, rep 2 = 1.26e6.
Depletion of spri #5 came out at: Kc cell number, rep 1 = 1.67e6; Kc cell number, rep 2 = 1.56e6; S2R+ cell number, rep 1 = 1.05e6; S2R+ cell number, rep 2 = 1.16e6.
Against spri #6, the entry reads Kc cell number, rep 1 = 1.59e6; Kc cell number, rep 2 = 1.48e6; S2R+ cell number, rep 1 = 1.03e6; S2R+ cell number, rep 2 = 1.10e6.
With knock-down of nyo #1, the record shows Kc cell number, rep 1 = 1.65e6; Kc cell number, rep 2 = 1.64e6; S2R+ cell number, rep 1 = 1.09e6; S2R+ cell number, rep 2 = 1.16e6.
With knock-down of nyo #2 the results were Kc cell number, rep 1 = 1.62e6; Kc cell number, rep 2 = 1.69e6; S2R+ cell number, rep 1 = 9.53e5; S2R+ cell number, rep 2 = 1.03e6.
